{"source": "PubChem BioAssay AID720505, Drosophila RNAi Screening Center | 2013", "screen": "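Genes needed for store-operated calcium entry in fly cells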 (primary screen)", "cell system": "Drosophila S2R+ cells", "reagents": "long dsRNA against Drosophila genes", "treatment": "thapsigargin (2 µM) in calcium-free buffer to empty internal stores, then 2 mM calcium added back", "measured": "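Fluo-4 signal in 384-well plates read on a FLIPR after thapsigargin (2 µM, calcium-free) store depletion and 2 mM calcium add-back; unnormalised mean endpoint per well; screen run twice, selected wells retested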", "scale": "calcium signal and retest calcium signal: higher = more calcium entry after store depletion", "rule for the call": "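Knock-downs counted as hits when calcium entry dropped relative to STIM1 positive and Rho1 negative controls present on each plate; roughly 1500 genes called, with reductions of differing size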", "calls": "active = called as lowering calcium entry; inactive = not called", "note": "In all, the deposit lists about 20,000 reagents; this is a random part of those with a known target gene and a result. Of all reagents, about 2,100 (10%) got an active call. 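Raw plate signals without normalisation; calls rest on control-based scores that were not deposited; replicate 2 separates called from uncalled poorly.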 Unmarked entries are inactive. A plus sign joins genes that one reagent is predicted to hit. Not given: the amount of reagent, the time to read-out."}
{"gene": "Rab8", "DRSC id": "DRSC11261", "calcium signal, replicate 1": 125, "calcium signal, replicate 2": 123}
{"gene": "RpL38", "DRSC id": "DRSC07818", "calcium signal, replicate 1": "46.5 (active)", "calcium signal, replicate 2": 90.4}
{"gene": "Arf4", "DRSC id": "DRSC17195", "calcium signal, replicate 1": 74.6, "calcium signal, replicate 2": 129}
{"gene": "EndoA", "DRSC id": "DRSC14775", "calcium signal, replicate 1": 104, "calcium signal, replicate 2": 204}
{"gene": "CBP", "DRSC id": "DRSC17746", "calcium signal, replicate 1": 171, "calcium signal, replicate 2": 128}
{"gene": "CG33461", "DRSC id": "DRSC22892", "calcium signal, replicate 1": 91.6, "calcium signal, replicate 2": 158}
{"gene": "abo", "DRSC id": "DRSC02926", "calcium signal, replicate 1": 160, "calcium signal, replicate 2": 138}
{"gene": "BckdhA", "DRSC id": "DRSC16395", "calcium signal, replicate 1": 214, "calcium signal, replicate 2": 145}
{"gene": "GstE1", "DRSC id": "DRSC07437", "calcium signal, replicate 1": 186, "calcium signal, replicate 2": 146}
{"gene": "CG34460", "DRSC id": "DRSC06974", "calcium signal, replicate 1": 110, "calcium signal, replicate 2": 109}
{"gene": "CG43666 + CG43667 + CG43668", "DRSC id": "DRSC03829", "calcium signal, replicate 1": 87, "calcium signal, replicate 2": 6626}
{"gene": "CG43666 + CG43667 + CG43668", "DRSC id": "DRSC04233", "calcium signal, replicate 1": 223, "calcium signal, replicate 2": 78.9}
{"gene": "CG6793", "DRSC id": "DRSC10714", "calcium signal, replicate 1": 89.7, "calcium signal, replicate 2": 88.3}
{"gene": "Rtnl2", "DRSC id": "DRSC12609", "calcium signal, replicate 1": 130, "calcium signal, replicate 2": 133}
{"gene": "Rtnl2", "DRSC id": "DRSC21655", "calcium signal, replicate 1": 155, "calcium signal, replicate 2": 99.2}
{"gene": "dpy", "DRSC id": "DRSC00233", "calcium signal, replicate 1": 91.1, "calcium signal, replicate 2": 94.9}
{"gene": "dpy", "DRSC id": "DRSC00234", "calcium signal, replicate 1": 145, "calcium signal, replicate 2": 135}
{"gene": "dpy", "DRSC id": "DRSC00472", "calcium signal, replicate 1": 131, "calcium signal, replicate 2": 138}
{"gene": "CG11413 + CG4622", "DRSC id": "DRSC04109", "calcium signal, replicate 1": 134, "calcium signal, replicate 2": 173}
{"gene": "CG4213", "DRSC id": "DRSC00641", "calcium signal, replicate 1": 159, "calcium signal, replicate 2": 130}
{"gene": "CG43333", "DRSC id": "DRSC01917", "calcium signal, replicate 1": 93.6, "calcium signal, replicate 2": 155}
{"gene": "CG43333", "DRSC id": "DRSC23265", "calcium signal, replicate 1": 139, "calcium signal, replicate 2": 106}
{"gene": "CG9588", "DRSC id": "DRSC16504", "calcium signal, replicate 1": 127, "calcium signal, replicate 2": 210}
{"gene": "Es2", "DRSC id": "DRSC18663", "calcium signal, replicate 1": 120, "calcium signal, replicate 2": 89.6}
{"gene": "Gyc89Da", "DRSC id": "DRSC15008", "calcium signal, replicate 1": 135, "calcium signal, replicate 2": 175}
{"gene": "pav", "DRSC id": "DRSC08730", "calcium signal, replicate 1": 107, "calcium signal, replicate 2": 115}
{"gene": "CG6426", "DRSC id": "DRSC06985", "calcium signal, replicate 1": 96.8, "calcium signal, replicate 2": 74.9}
{"gene": "CG15263", "DRSC id": "DRSC01974", "calcium signal, replicate 1": 95.6, "calcium signal, replicate 2": 126, "retest calcium signal, replicate 1": 74.1, "retest calcium signal, replicate 2": 84.3}
